Source: PMC7819943, “Rice protein-binding microarrays: a tool to detect cis-acting elements near promoter regions in rice”
Some of the results follow.

Chains of the proteins cited; added tags and fusions are not shown.
UniProt Q0JBA9, entry or part of it: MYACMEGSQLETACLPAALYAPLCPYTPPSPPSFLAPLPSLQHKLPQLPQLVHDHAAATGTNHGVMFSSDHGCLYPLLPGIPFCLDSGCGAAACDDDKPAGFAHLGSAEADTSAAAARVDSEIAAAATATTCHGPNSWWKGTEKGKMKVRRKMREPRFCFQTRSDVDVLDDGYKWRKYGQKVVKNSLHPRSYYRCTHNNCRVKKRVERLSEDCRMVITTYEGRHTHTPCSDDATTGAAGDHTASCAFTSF

Molecular target: OsWRKY34 (Oryza sativa, UniProt Q0JBA9 1-250)
Assay: protein-binding microarray (RPBM); PBS, 2% BSA, 51.3 ng/ul salmon testes DNA, 50 uM zinc acetate, 200 nM TF, 25 C, 1 h; high values mean tight binding
Details: protein: recombinant; tags: N-terminal polyhistidine and DsRed monomer fusion (pET32a); label: CyDye5-dUTP incorporated in the synthesized complementary strand; 3' TTTTT single-stranded linker to array surface; dsDNA, one strand shown
How it was run: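 In PBS with 2% BSA, salmon testes DNA and 50 µM zinc acetate, 200 nM protein was incubated on a custom Agilent array at 25 °C for 1 h and then washed off. The array had been made double-stranded by primer extension with Cy5-dUTP and blocked with 2% BSA. The proteins were transcription factors fused N-terminally to polyhistidine and DsRed, expressed in E. coli BL21-CodonPlus and purified on Ni–NTA. The binding signal is per-feature fluorescence intensity (arbitrary units) from an Axon 4000B scanner.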

Sequence | binding signal
CTATTACAGGTGCGGTGGGCGGTCTCTTGCTTCTTACAATCGGAGTCACCTAGTGCAG | 12800 fluorescence intensity (a.u.)
CTCTCCTCCCTATTCTTTTCCTTTCCTCTCCTTTCCTTTCCGGAGTCACCTAGTGCAG | 8870 fluorescence intensity (a.u.)
GCGAGCAAGATTGGAATCAGCGTGGTGGTGGTAGGGGAGGCGGAGTCACCTAGTGCAG | 9480 fluorescence intensity (a.u.)
AGCTCGTAATTTGTATGGGTTGTAAATTGATTTCATGTAACGGAGTCACCTAGTGCAG | 9890 fluorescence intensity (a.u.)
AGCCAATCCCCAGCCTGTCCATTTGAATCATTACATTTAGCGGAGTCACCTAGTGCAG | 8160 fluorescence intensity (a.u.)
GTTCCAGCCGCGTTTCCTCTCGCGGCGGCCTCGCCATTTCCGGAGTCACCTAGTGCAG | 9070 fluorescence intensity (a.u.)
ATTCTGTAACCCGCTGCGGGCAACGGCCGGACGTGCAATCCGGAGTCACCTAGTGCAG | 9630 fluorescence intensity (a.u.)
AAAAGAAGCAAGGACCTTCCCTACTCAACTCACTCATTCACGGAGTCACCTAGTGCAG | 8120 fluorescence intensity (a.u.)
TTGTGGATTTTTTTTTTTTGAGAGGGATGGGTGTTTGATTCGGAGTCACCTAGTGCAG | 10900 fluorescence intensity (a.u.)
TATCCGTTCTAGCGAGGGACCAAATTTCTCACCAGATTTCCGGAGTCACCTAGTGCAG | 8700 fluorescence intensity (a.u.)
TTGCCAACATGTATACCCGTCGGATTAGTTGACCGTGAAACGGAGTCACCTAGTGCAG | 10800 fluorescence intensity (a.u.)
CAATCCCTCCTTGGACTCCGGCCACGATCAGCTCCTCGGCCGGAGTCACCTAGTGCAG | 8310 fluorescence intensity (a.u.)
GGGAGAGGGGTGTGGGGCGGAGAGGGAGAGGGAGATGGGACGGAGTCACCTAGTGCAG | 9680 fluorescence intensity (a.u.)
GTGGAGCTATACCTTCTACTCTCAGCAATTGTCCTTTAGACGGAGTCACCTAGTGCAG | 9460 fluorescence intensity (a.u.)
AGGGTCGAGAGTTACAATTATGCATGTGTATCTATGTGTTCGGAGTCACCTAGTGCAG | 8310 fluorescence intensity (a.u.)
CCCTCCACATGACATCACCCCTCGCGCGGCTGCTGCTCTCCGGAGTCACCTAGTGCAG | 8420 fluorescence intensity (a.u.)
CGCTTTTGGGCAGCAAGGCAAGAATATTACTTGCCTTCCACGGAGTCACCTAGTGCAG | 9460 fluorescence intensity (a.u.)
GATCAATTGTTGTCGGTGATCATACATTGTCTGTCTTGGACGGAGTCACCTAGTGCAG | 8030 fluorescence intensity (a.u.)
GGATTGGTATCGTTTCGACTTGATAAAATCATAGTATTATCGGAGTCACCTAGTGCAG | 8460 fluorescence intensity (a.u.)
TTACTTGCTATTGTGATACAAGGTATTTTGCCAATCATCTCGGAGTCACCTAGTGCAG | 8520 fluorescence intensity (a.u.)
TGGTTGCACGCGATTTAATTATGCTTGTTTTATTACTTCACGGAGTCACCTAGTGCAG | 10100 fluorescence intensity (a.u.)

Sequence | binding signal
AGCCGATAAATCAAGCGCCCGCTTTTCTCTTTCCTTGCATCGGAGTCACCTAGTGCAG | 8190 fluorescence intensity (a.u.)
GCTCACAGCTCGCTCACTCGCTCTCCTCTTCCAACCAACTCGGAGTCACCTAGTGCAG | 8560 fluorescence intensity (a.u.)
TTTTCCTCCGGCGACTGTTATACTCTGGCCACTTCCTTCCCGGAGTCACCTAGTGCAG | 9530 fluorescence intensity (a.u.)
TTCTCTTGCCCCATACCCACACCCACCATATCTAAATACTCGGAGTCACCTAGTGCAG | 8250 fluorescence intensity (a.u.)
TTAAGCAGTAAAGTGGGTAGTTTTCAATAGTTTAGAGGATCGGAGTCACCTAGTGCAG | 8500 fluorescence intensity (a.u.)
TCTAGTTATTTTACACGTTATTTTTTTTGTTATCATATTACGGAGTCACCTAGTGCAG | 12600 fluorescence intensity (a.u.)
TCTATGCTTGCTTTGTCCTCGAAACTAACTGCCATTCTGCCGGAGTCACCTAGTGCAG | 8280 fluorescence intensity (a.u.)
AGAGGAGGAAGAAGAGGAGGGGTGACAATGATATGTGGGGCGGAGTCACCTAGTGCAG | 10100 fluorescence intensity (a.u.)
TGGGTGGGGATGAAGTGTGGAAGTGGCATATCTTTATCCACGGAGTCACCTAGTGCAG | 8320 fluorescence intensity (a.u.)
ACTGGCCAATATCCCCAACTTTTCTTCTTTTTTTTCTTTCCGGAGTCACCTAGTGCAG | 9610 fluorescence intensity (a.u.)
GGGGTATGAGGAGGTGGGGCGACGTGGGACGTAGCTGGGTCGGAGTCACCTAGTGCAG | 9390 fluorescence intensity (a.u.)
GATCTGCATGAAATGCGCTGGCCACATTTGTCGTTGTCACCGGAGTCACCTAGTGCAG | 8750 fluorescence intensity (a.u.)
AACTACGCGTTCAATCCATGTTTCATCACATTAAGGTTCCCGGAGTCACCTAGTGCAG | 11800 fluorescence intensity (a.u.)
AAACGCGTCCAGCTCATCGTCGCCGGCGCCTCGTTTCACCCGGAGTCACCTAGTGCAG | 8450 fluorescence intensity (a.u.)
CGTTGACTTTTTAGCACATGTTTGACCGTTCGTCTTATTCCGGAGTCACCTAGTGCAG | 29000 fluorescence intensity (a.u.)
ACTTTTCTTCCATCCATCCATCCATCCATTTGATTCAAGACGGAGTCACCTAGTGCAG | 11400 fluorescence intensity (a.u.)
AGCAGCAAAGGGGCGGTGGGTTCTTTGTCTCTCTCTCTCGCGGAGTCACCTAGTGCAG | 11800 fluorescence intensity (a.u.)
TATATGTTTCCATGTCTAACGTCGTTTAACTATCCGTCTTCGGAGTCACCTAGTGCAG | 9210 fluorescence intensity (a.u.)
CAACACCCGTCCGCCAGAGAAGACCATCGTGACGCCACTCCGGAGTCACCTAGTGCAG | 10500 fluorescence intensity (a.u.)
CCGCGTACGCGTACGTATAACCTCGCGTCTTTACAGTCTACGGAGTCACCTAGTGCAG | 8510 fluorescence intensity (a.u.)
CACCCAGAGCCCACGACCCGACTCGACCGACGCGCGCTGTCGGAGTCACCTAGTGCAG | 8710 fluorescence intensity (a.u.)

A different layout for part of the listing above.
Sequence	binding signal
TCTATGCTTGCTTTGTCCTCGAAACTAACTGCCATTCTGCCGGAGTCACCTAGTGCAG	8280 fluorescence intensity (a.u.)
AGAGGAGGAAGAAGAGGAGGGGTGACAATGATATGTGGGGCGGAGTCACCTAGTGCAG	10100 fluorescence intensity (a.u.)
TGGGTGGGGATGAAGTGTGGAAGTGGCATATCTTTATCCACGGAGTCACCTAGTGCAG	8320 fluorescence intensity (a.u.)
ACTGGCCAATATCCCCAACTTTTCTTCTTTTTTTTCTTTCCGGAGTCACCTAGTGCAG	9610 fluorescence intensity (a.u.)

(listing goes on)

Sequence | binding signal
CTATCCTGCACTGAAGCCATCGGTCAAATTATCCAAATTACGGAGTCACCTAGTGCAG | 8360 fluorescence intensity (a.u.)
ACCCTAGAGTTGCCCTAGCCCGCTTCGCCGGCGGCCGCCACGGAGTCACCTAGTGCAG | 10400 fluorescence intensity (a.u.)
TCGGGGCGGTGGGGAGGTTTGAGGTTAGTCATGGACTGTGCGGAGTCACCTAGTGCAG | 12500 fluorescence intensity (a.u.)
GGTTACTATTTATTTGACCTATGTGGGTTGACCCACTTTGCGGAGTCACCTAGTGCAG | 9750 fluorescence intensity (a.u.)
TACTTATACCGTTCACTTCTTAACACATATTTGACTATTTCGGAGTCACCTAGTGCAG | 10600 fluorescence intensity (a.u.)
CCATCGCTTCGTCTGGTCGTTTCGTCTGGCAACGCCGCCGCGGAGTCACCTAGTGCAG | 8180 fluorescence intensity (a.u.)
CCCGAGTCTTTAATCACTTTTGCTTACGTGTATGGTTAGGCGGAGTCACCTAGTGCAG | 10200 fluorescence intensity (a.u.)
GACTGAGCTTTGTGGGTGGGTTGGTTGGTTGGTTATACAACGGAGTCACCTAGTGCAG | 30500 fluorescence intensity (a.u.)
TCCGGTCAAACACCACACACCTGACCGTTTCGCCGCCGCGCGGAGTCACCTAGTGCAG | 8630 fluorescence intensity (a.u.)
CCACCACTCATTTATGTTGGACCAACTCTTCTCGCCCTAACGGAGTCACCTAGTGCAG | 8970 fluorescence intensity (a.u.)
CCGCACGCACGCTTTTTAAACTGTTAAACGATGTGTTTTTCGGAGTCACCTAGTGCAG | 10400 fluorescence intensity (a.u.)
CGCCGCTACCATCCAATCCACCCCACTCCATTCTCTCATCCGGAGTCACCTAGTGCAG | 11600 fluorescence intensity (a.u.)
CCTCAACCTCTCATTGCCGTTCTGCCGTCAAGAAAATAAGCGGAGTCACCTAGTGCAG | 8250 fluorescence intensity (a.u.)
ATATATATATATATATATATATATATATATATATAATGGGCGGAGTCACCTAGTGCAG | 8180 fluorescence intensity (a.u.)
GCTTGGTCTATAAGTTGCTGCTCTGCCCTGCTCGGCCTCACGGAGTCACCTAGTGCAG | 12000 fluorescence intensity (a.u.)
ATGTTTGACCGTTCGTCTTATTCAAAAATTTTAAGTAATTCGGAGTCACCTAGTGCAG | 8760 fluorescence intensity (a.u.)
GGACTTACATCCAATGTTTATAGGGGTATTTAGATTTTTTCGGAGTCACCTAGTGCAG | 11000 fluorescence intensity (a.u.)
ATCTCGTGACGTCTCCCGCTCCCGCTCGCGTTGCTCCCAACGGAGTCACCTAGTGCAG | 10200 fluorescence intensity (a.u.)
GTTGTCTCTATCCCCACCGGCACCGCTCGCTGCTTCCATGCGGAGTCACCTAGTGCAG | 8040 fluorescence intensity (a.u.)
CTTCGCTTGTCCGGCCAGAAGCTCTTTCTTCACATTTGCTCGGAGTCACCTAGTGCAG | 8460 fluorescence intensity (a.u.)
GGAGACGTTATATCTGCTACTGTGGTTGTGGGAGGTGATTCGGAGTCACCTAGTGCAG | 8110 fluorescence intensity (a.u.)

Sequence | binding signal
TATAGTTTTATATGATCCCAATTGATGTTACTTATTTTTTCGGAGTCACCTAGTGCAG | 10200 fluorescence intensity (a.u.)
TGGGATGGTGAAGTTGCTATAGAGATAGTTTTGGTTTGCCCGGAGTCACCTAGTGCAG | 10100 fluorescence intensity (a.u.)
AGTCTGAACTAGTAGCTTGCCCACTCTGCTTCCTTTTATACGGAGTCACCTAGTGCAG | 8780 fluorescence intensity (a.u.)
TCTCTCTCTCTCTCCTCTGCATCCGCGCGCATTGCTCGATCGGAGTCACCTAGTGCAG | 9000 fluorescence intensity (a.u.)
GCCCGCCGCACTGGCCTGCCGCGCGCCCGCGCCTAGCTCCCGGAGTCACCTAGTGCAG | 8100 fluorescence intensity (a.u.)
CCTCACCTCTCCTAGCTAGTCCGATGAGATTCCTCGCCACCGGAGTCACCTAGTGCAG | 9750 fluorescence intensity (a.u.)
AGGTCGGGCAGGCGGTTGGGAAATACCCGCCCTATTTTCACGGAGTCACCTAGTGCAG | 9520 fluorescence intensity (a.u.)
AGTTTCCGAAAAATATGTCCAGCTTATCTCAACTGCGCCACGGAGTCACCTAGTGCAG | 8560 fluorescence intensity (a.u.)
CCTCTGTCTCTTGTCTCTCCTGATTCCCTTCGACCGACCGCGGAGTCACCTAGTGCAG | 10200 fluorescence intensity (a.u.)
TGGTGGTGGTGCTAGGTAGCTAGCTAGTAGTAGTTTTTCTCGGAGTCACCTAGTGCAG | 9620 fluorescence intensity (a.u.)
GTACACACGCCCTGCCAAATTGACTGACCGCATCCTCGTCCGGAGTCACCTAGTGCAG | 8940 fluorescence intensity (a.u.)
CTTTACCACCTCTTCCTAACTTTCACTTGCTTGTTTTTCACGGAGTCACCTAGTGCAG | 9720 fluorescence intensity (a.u.)
TTACTTTCCAGTCCAATTTCCAAGCTACCACGGTATTTATCGGAGTCACCTAGTGCAG | 8192 fluorescence intensity (a.u.)
TGTCCTACCATCTTTCCATCCCCATTGGCGCCAACCTTTCCGGAGTCACCTAGTGCAG | 10900 fluorescence intensity (a.u.)
TTTGCGCTGCTCTTTCCTCACATATTGATCACATTTGCCACGGAGTCACCTAGTGCAG | 9540 fluorescence intensity (a.u.)
ACACACAAACTTTCAACTTTTCTGTCACATCGTTCCAATTCGGAGTCACCTAGTGCAG | 9750 fluorescence intensity (a.u.)
CATCTATCCTGTTCCAAGAAGCCCCGTTCTTTTCTCCAACCGGAGTCACCTAGTGCAG | 9520 fluorescence intensity (a.u.)
CGCACGATGCATCCTTCATCCTGGCCTCACGGCATCGTTCCGGAGTCACCTAGTGCAG | 8320 fluorescence intensity (a.u.)
AGGCGCTCCATAGGCCTCGTCATCTTCACAGTCACACACCCGGAGTCACCTAGTGCAG | 11200 fluorescence intensity (a.u.)
TGTTCTTGGTCGCCGCCATGTCCTCGCCGCCGTCTGATCCCGGAGTCACCTAGTGCAG | 11100 fluorescence intensity (a.u.)
TTTTTTTGCGGGGTTTTTCCAATGTATCGATCATTGTTGACGGAGTCACCTAGTGCAG | 10800 fluorescence intensity (a.u.)
